Source: the supplement of paper PMC10849652
Some of the results follow.

The chains behind the UniProt entries cited, without tags or fusion partners. Where a name states a change or a piece, a line headed by the entry shows the natural chain unless it says otherwise.
UniProt Q9BT22: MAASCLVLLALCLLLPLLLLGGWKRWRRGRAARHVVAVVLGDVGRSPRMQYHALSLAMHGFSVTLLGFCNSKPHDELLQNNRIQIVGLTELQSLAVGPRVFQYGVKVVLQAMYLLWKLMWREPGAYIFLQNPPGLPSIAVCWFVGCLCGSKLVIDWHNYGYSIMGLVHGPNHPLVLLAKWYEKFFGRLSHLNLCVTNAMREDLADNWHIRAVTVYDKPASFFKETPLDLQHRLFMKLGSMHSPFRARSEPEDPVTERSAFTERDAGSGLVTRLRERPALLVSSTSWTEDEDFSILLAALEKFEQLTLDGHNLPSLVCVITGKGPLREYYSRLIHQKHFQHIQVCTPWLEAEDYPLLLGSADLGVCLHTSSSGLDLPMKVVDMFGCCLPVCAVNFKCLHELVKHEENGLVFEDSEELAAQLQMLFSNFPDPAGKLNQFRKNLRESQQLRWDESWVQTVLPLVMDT
UniProt Q6ZTN6: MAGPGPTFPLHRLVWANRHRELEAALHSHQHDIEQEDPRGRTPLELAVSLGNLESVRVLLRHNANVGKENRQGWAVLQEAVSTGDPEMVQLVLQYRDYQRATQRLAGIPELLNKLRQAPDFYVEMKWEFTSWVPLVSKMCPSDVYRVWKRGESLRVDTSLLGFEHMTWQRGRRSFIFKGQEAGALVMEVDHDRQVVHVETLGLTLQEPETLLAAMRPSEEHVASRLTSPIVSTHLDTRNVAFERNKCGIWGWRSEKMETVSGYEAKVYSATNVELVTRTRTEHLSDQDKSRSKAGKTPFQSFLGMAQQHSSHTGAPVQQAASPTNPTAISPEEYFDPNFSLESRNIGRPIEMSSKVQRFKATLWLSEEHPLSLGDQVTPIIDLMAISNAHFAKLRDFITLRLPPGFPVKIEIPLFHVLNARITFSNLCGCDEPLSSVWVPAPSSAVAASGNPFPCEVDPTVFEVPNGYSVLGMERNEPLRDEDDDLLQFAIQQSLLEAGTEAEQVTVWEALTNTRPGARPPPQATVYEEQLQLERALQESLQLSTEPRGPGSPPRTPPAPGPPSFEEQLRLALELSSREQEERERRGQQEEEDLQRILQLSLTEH
UniProt Q10567: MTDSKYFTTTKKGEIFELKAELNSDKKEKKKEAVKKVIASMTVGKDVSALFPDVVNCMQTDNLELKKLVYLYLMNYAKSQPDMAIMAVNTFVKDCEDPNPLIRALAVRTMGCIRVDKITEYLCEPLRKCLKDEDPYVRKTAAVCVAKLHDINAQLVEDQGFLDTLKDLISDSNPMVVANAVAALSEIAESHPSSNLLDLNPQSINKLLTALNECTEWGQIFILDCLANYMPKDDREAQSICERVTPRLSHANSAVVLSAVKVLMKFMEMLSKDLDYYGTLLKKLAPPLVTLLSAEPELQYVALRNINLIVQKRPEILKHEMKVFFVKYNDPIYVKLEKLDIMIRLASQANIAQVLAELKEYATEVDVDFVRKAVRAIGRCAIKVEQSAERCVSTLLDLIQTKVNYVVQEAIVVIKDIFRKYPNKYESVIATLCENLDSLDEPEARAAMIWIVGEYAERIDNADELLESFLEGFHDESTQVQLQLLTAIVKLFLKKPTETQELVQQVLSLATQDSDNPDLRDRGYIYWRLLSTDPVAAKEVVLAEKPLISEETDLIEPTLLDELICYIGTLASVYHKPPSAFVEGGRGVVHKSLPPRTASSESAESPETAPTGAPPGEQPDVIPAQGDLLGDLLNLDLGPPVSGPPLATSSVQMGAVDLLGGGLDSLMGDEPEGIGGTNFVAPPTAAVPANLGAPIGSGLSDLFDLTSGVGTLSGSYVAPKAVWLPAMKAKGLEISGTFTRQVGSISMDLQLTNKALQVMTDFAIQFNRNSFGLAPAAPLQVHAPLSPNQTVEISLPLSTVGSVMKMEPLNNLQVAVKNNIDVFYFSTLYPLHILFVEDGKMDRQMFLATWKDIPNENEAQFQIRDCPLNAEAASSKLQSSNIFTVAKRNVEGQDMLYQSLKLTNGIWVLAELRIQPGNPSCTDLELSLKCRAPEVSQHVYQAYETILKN
UniProt O15084: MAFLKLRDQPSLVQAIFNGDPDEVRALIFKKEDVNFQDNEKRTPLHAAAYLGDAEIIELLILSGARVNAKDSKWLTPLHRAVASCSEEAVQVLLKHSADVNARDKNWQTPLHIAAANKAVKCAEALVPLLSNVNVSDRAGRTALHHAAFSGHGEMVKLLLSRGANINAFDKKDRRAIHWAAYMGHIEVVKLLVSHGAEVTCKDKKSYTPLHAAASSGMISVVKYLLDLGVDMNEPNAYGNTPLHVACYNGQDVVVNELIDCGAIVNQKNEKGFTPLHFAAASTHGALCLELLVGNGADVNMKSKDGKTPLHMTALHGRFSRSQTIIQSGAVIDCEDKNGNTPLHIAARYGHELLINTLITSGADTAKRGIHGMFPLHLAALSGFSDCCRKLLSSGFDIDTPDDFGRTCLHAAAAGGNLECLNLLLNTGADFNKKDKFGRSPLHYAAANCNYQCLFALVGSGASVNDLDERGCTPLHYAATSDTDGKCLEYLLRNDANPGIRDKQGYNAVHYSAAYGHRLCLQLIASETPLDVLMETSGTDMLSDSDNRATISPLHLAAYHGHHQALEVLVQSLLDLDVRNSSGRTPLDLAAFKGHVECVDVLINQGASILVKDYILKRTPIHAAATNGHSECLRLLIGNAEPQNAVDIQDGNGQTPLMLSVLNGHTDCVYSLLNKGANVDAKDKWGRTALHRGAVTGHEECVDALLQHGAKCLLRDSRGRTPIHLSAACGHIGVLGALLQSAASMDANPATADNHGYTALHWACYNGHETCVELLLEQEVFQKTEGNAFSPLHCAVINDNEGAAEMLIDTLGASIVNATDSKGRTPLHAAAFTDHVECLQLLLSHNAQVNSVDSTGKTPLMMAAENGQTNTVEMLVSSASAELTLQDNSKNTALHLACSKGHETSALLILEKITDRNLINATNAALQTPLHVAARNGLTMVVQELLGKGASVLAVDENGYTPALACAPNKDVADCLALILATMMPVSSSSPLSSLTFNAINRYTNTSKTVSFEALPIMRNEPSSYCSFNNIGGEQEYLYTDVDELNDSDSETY
UniProt P08133: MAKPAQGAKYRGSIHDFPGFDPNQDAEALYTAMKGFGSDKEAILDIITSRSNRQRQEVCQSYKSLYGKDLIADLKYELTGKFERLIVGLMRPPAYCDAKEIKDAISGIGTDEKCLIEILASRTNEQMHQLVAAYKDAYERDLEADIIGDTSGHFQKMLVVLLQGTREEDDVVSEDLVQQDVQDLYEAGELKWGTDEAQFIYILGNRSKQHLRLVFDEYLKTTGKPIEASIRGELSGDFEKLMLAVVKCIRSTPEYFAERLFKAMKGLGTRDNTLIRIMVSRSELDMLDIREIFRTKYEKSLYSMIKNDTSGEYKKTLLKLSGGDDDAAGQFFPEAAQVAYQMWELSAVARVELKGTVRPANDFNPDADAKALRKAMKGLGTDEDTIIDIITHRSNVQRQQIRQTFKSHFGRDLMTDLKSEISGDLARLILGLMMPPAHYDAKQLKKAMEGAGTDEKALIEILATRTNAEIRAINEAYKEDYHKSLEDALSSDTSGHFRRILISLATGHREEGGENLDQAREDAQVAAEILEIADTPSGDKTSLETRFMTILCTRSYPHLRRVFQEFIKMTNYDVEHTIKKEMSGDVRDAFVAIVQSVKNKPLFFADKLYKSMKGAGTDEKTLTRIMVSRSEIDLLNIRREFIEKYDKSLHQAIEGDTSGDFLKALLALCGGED
UniProt P58335, whole entry, looked up: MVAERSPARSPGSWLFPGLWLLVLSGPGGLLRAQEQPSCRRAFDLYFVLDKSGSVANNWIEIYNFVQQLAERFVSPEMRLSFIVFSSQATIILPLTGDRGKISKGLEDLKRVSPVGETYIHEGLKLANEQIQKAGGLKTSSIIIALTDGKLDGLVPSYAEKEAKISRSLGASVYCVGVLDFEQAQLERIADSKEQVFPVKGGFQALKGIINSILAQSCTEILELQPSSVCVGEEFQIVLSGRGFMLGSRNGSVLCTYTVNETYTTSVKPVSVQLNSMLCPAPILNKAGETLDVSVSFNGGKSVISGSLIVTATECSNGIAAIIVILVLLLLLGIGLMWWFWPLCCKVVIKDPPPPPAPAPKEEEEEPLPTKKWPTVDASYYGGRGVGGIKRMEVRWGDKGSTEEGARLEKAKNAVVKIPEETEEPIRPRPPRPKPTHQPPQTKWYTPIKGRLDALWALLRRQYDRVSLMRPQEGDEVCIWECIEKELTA
UniProt Q9BXS5: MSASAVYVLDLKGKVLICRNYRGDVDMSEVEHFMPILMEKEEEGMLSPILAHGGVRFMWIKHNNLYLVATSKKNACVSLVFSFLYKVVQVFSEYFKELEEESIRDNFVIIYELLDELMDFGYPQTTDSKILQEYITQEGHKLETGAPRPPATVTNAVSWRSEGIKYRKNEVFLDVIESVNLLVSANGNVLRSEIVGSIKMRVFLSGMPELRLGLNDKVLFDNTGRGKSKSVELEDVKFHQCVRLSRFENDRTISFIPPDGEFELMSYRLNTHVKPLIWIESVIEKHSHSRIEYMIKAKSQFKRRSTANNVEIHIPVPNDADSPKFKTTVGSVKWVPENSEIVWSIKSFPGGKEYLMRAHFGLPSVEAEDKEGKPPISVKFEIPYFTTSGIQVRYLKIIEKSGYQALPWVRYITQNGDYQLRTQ
UniProt Q9NXW9: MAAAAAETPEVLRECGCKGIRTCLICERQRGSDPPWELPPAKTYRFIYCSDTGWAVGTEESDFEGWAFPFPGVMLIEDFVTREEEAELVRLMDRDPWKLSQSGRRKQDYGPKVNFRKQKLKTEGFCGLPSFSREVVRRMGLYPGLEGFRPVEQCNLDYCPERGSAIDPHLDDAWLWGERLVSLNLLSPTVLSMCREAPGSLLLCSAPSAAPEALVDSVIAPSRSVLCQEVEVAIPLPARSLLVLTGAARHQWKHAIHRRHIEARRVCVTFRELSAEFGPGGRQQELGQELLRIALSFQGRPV
UniProt P50995, whole entry, looked up: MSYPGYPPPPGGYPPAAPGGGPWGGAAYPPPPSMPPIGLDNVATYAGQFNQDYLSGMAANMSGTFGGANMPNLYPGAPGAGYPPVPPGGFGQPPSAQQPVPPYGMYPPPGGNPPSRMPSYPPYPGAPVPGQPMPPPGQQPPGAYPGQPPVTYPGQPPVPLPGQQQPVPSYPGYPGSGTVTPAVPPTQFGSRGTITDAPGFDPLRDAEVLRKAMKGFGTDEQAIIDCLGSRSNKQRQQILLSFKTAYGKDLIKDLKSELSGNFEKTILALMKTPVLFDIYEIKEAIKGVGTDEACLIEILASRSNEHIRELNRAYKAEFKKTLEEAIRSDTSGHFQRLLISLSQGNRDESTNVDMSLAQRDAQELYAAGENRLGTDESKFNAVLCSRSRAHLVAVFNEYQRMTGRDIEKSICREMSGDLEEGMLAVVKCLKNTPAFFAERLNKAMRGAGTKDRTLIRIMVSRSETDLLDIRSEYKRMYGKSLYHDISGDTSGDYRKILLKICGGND
UniProt P56377: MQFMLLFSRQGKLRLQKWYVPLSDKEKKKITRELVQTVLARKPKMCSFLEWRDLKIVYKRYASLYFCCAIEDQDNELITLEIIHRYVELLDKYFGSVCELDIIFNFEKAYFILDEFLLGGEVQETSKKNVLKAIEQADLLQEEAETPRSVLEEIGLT
UniProt Q9Y6B7: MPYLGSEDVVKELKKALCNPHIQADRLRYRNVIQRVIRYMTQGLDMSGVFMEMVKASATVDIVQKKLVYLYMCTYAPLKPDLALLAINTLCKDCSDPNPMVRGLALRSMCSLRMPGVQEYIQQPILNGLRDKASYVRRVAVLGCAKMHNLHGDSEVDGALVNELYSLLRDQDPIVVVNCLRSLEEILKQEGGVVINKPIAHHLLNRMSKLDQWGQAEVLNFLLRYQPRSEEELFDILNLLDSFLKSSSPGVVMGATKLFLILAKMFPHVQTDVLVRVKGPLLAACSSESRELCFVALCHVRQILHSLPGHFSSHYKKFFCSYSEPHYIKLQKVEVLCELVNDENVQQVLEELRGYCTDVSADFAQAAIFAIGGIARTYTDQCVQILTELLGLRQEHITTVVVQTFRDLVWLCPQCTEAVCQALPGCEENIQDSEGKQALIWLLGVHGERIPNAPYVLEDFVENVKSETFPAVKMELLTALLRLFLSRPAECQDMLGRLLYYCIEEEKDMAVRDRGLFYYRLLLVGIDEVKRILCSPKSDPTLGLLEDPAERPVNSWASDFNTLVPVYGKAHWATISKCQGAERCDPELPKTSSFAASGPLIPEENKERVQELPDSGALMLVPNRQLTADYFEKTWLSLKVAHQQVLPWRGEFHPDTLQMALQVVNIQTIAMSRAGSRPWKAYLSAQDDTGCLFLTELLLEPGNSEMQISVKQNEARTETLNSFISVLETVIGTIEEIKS

Columns and labels:
Test in all cases: log2 fold change, soluble protein after heating vs DMSO (PISA); higher = thermal stabilisation; K562 lysate, 10 uM; active = over 0.2 and 3.5 SD of the protein, either way, in both replicates (recomputed)
alvocidib = compound: CN1CC[C@H](c2c(O)cc(O)c3c(=O)cc(-c4ccccc4Cl)oc23)[C@H](O)C1 [alvocidib]
How it was run: (§1)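 Log-two fold change in thermal stability relative to solvent controls is reported from duplicates. For each sample, crude K562 extract from dounce-homogenised pellets in PBS pH 7.4 with 1 mM MgCl2, at 1 mg/mL protein, was treated with 10 μM compound for 30 min. Aliquots heated for 3 min across 48°C-58°C were pooled, brought to 0.5% NP-40 at 4°C and cleared at 21,000xg for 90 min. The supernatant was quantified by TMTpro 16plex LC-MS/MS with channel sums equalised.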

Tubastatin A = compound: CN1CCc2c(c3ccccc3n2Cc2ccc(C(=O)NO)cc2)C1 [Tubastatin A]
How it was run: as §1

[1] = compound: CNC(=O)C1=CC=CC=C1NC2=NC(=NC=C2Cl)NC3=C(C=C(C=C3)N4CCOCC4)OC
How it was run: as §1

defactinib = compound: CNC(=O)c1ccc(Nc2ncc(C(F)(F)F)c(NCc3nccnc3N(C)S(C)(=O)=O)n2)cc1 [defactinib]
How it was run: as §1

[2] = compound: CNc1nc(-c2ccc3c(N)n[nH]c3c2)cc(N2C[C@@H](C(=O)NC3CCCCC3)CC[C@H]2C)n1
How it was run: as §1

encorafenib = compound: COC(=O)N[C@@H](C)CNc1nccc(-c2cn(C(C)C)nc2-c2cc(Cl)cc(NS(C)(=O)=O)c2F)n1 [encorafenib]
How it was run: as §1

[3] = compound: COC(=O)[C@H](CCSC)NC(=O)C1=C(C=C(C=C1)NC[C@H](CS)N)C2=CC=CC=C2
How it was run: as §1

alisertib = compound: COc1cc(Nc2ncc3c(n2)-c2ccc(Cl)cc2C(c2c(F)cccc2OC)=NC3)ccc1C(=O)O [alisertib]
How it was run: as §1

[4] = compound: COc1cc2nc(-c3cc(F)ccc3O)nc(N[C@@H]3CNC[C@H]3C(C)(C)O)c2cc1OC
How it was run: as §1

gefitinib = compound: COc1cc2ncnc(Nc3ccc(F)c(Cl)c3)c2cc1OCCCN1CCOCC1 [gefitinib]
How it was run: as §1

Measured: log2 fold change

ALG1 (UniProt Q9BT22)
inactive: alvocidib 0.042 | Tubastatin A -0.004 | [1] 0.042 | defactinib -0.02 | [2] 0.009 | encorafenib 0.005 | [3] -0.068 | alisertib -0.065 | [4] 0.064 | gefitinib 0.019

ANKRD13D isoform 3 (UniProt Q6ZTN6)
inactive: alvocidib -0.038 | Tubastatin A -0.103 | [1] 0.059 | defactinib 0.157 | [2] 0.033 | encorafenib -0.169 | [3] -0.036 | alisertib -0.019 | [4] -0.029 | gefitinib 0

AP1B1 (UniProt Q10567)
inactive: alvocidib 0.011 | Tubastatin A -0.002 | [1] 0.017 | defactinib 0.008 | [2] 0.009 | encorafenib 0.008 | [3] 0.011 | alisertib -0.009 | [4] 0 | gefitinib 0.006

ANKRD28 (UniProt O15084)
inactive: alvocidib -0.006 | Tubastatin A -0.058 | [1] -0.025 | defactinib 0.007 | [2] 0.002 | encorafenib 0.015 | [3] 0.035 | alisertib 0.016 | [4] -0.013 | gefitinib -0.01

ANKRD17 (UniProt O75179)
inactive: alvocidib -0.013 | Tubastatin A -0.042 | [1] -0.013 | defactinib 0.003 | [2] -0.057 | encorafenib 0.038 | [3] 0.026 | alisertib 0.029 | [4] -0.015 | gefitinib 0.012

ANXA6 (UniProt P08133)
inactive: alvocidib -0.032 | Tubastatin A 0.008 | [1] -0.014 | defactinib -0.027 | [2] -0.037 | encorafenib -0.034 | [3] 0.051 | alisertib 0.005 | [4] -0.002 | gefitinib -0.007

ANTXR2 isoform 4 (UniProt P58335)
inactive: alvocidib -0.043 | Tubastatin A 0.06 | [1] -0.015 | defactinib -0.001 | [2] -0.004 | encorafenib 0.001 | [3] -0.034 | alisertib -0.022 | [4] 0.011 | gefitinib 0.027

ALYREF (UniProt Q86V81)
inactive: alvocidib 0.065 | Tubastatin A 0.112 | [1] -0.025 | defactinib -0.012 | [2] 0.059 | encorafenib 0.013 | [3] -0.062 | alisertib 0.04 | [4] -0.026 | gefitinib 0.014

AP1M1 (UniProt Q9BXS5)
inactive: alvocidib -0.009 | Tubastatin A 0.007 | [1] -0.004 | defactinib 0.013 | [2] -0.033 | encorafenib 0.011 | [3] 0.001 | alisertib 0.001 | [4] 0.011 | gefitinib 0.014

Quoted from the listing (two entries):
AP1B1 (UniProt Q10567)
inactive: alvocidib 0.011 | Tubastatin A -0.002 | [1] 0.017 | defactinib 0.008 | [2] 0.009 | encorafenib 0.008 | [3] 0.011 | alisertib -0.009 | [4] 0 | gefitinib 0.006

ANKRD28 (UniProt O15084)
inactive: alvocidib -0.006 | Tubastatin A -0.058 | [1] -0.025 | defactinib 0.007 | [2] 0.002 | encorafenib 0.015 | [3] 0.035 | alisertib 0.016 | [4] -0.013 | gefitinib -0.01

More results:

ALKBH4 (UniProt Q9NXW9)
inactive: alvocidib 0.029 | Tubastatin A -0.093 | [1] -0.003 | defactinib 0.166 | [2] 0.026 | encorafenib 0.053 | [3] -0.02 | alisertib 0.019 | [4] -0.03 | gefitinib 0.044

ANXA11 (UniProt P50995)
inactive: alvocidib -0.025 | Tubastatin A 0.017 | [1] 0.009 | defactinib -0.012 | [2] -0.019 | encorafenib -0.004 | [3] 0.027 | alisertib 0.015 | [4] -0.015 | gefitinib -0.014

AP1S2 isoform 2 (UniProt P56377)
inactive: alvocidib -0.107 | Tubastatin A -0.036 | [1] -0.017 | defactinib 0.022 | [2] -0.146 | encorafenib 0.089 | [3] -0.01 | alisertib 0.045 | [4] -0.002 | gefitinib 0.034

ALS2 (UniProt Q96Q42)
inactive: alvocidib -0.045 | Tubastatin A -0.263 | [1] 0.045 | defactinib -0.105 | [2] 0.059 | encorafenib 0.005 | [3] -0.06 | alisertib 0.076 | [4] 0.082 | gefitinib -0.11

AP4B1 (UniProt Q9Y6B7)
inactive: alvocidib -0.053 | Tubastatin A -0.021 | [1] -0.051 | defactinib -0.001 | [2] 0.041 | encorafenib 0.057 | [3] -0.01 | alisertib -0.014 | [4] -0.121 | gefitinib 0.031
